# Results published in the supplement of paper PMC3334620.
# The full ranking holds about 33,000 sequences; the median of “E-score (-0.5 to 0.5)” is about -0.0014, and the highest 2% start at about 0.25. The list shows a part of the results.
# Target: T1, Cad1 (UniProt P24813)
# T1 sequence: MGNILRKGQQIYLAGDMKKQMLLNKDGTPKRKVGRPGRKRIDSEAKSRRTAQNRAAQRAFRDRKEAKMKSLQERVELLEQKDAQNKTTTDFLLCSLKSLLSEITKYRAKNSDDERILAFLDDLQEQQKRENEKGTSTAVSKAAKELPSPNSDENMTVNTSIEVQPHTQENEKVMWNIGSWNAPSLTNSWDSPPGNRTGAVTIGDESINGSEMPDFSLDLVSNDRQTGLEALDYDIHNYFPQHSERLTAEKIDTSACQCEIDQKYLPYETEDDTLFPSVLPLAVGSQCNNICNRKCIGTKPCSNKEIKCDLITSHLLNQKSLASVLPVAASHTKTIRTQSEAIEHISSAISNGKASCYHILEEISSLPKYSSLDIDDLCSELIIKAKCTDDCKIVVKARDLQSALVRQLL
# Assay: PBM E-score (8-mer binding enrichment) (E-score (-0.5 to 0.5)); higher = stronger / more preferred TF binding
# Settings: protein concentration: 100 nM; construct: GST-full length
# Outline: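 Masliner-normalised scans of fluorescent anti-GST signal were the basis for scoring. That signal came from GST-tagged yeast transcription factors applied at about 100-200 nM to double-stranded universal all-10-mer Agilent arrays on fresh or once-stripped slides. Each ungapped eight-base word, pooled with its reverse complement, received an E-score from the Universal PBM Analysis Suite.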
row,Sequence,PBM E-score
1,ATCACTCA,0.103
2,ACTAGAGG,-0.261
3,CCGAGTGA,0.0253
4,GATACTCA,0.0677
5,GACTCGCC,-0.296
6,CATCTGGG,-0.088
7,GCTTAGCC,-0.148
8,GGGATGCA,-0.167
9,ACAATCTA,-0.0578
10,AGACACGA,0.00772
11,ATCTACCG,0.119
12,TGACTGAA,-0.0472
13,AACTAGAG,-0.176
14,CGCACACC,0.0191
15,ACGGCTTA,0.152
16,AATTACAA,0.0797
17,AACATAAA,0.0346
18,GGGGACGA,-0.146
19,AGATTTAT,0.123
20,ACAACACG,0.109
21,CCATACGG,-0.0658
22,TTAGGCAA,-0.0641
23,GGCACTAA,0.108
24,CCGGGTCG,-0.00042
25,CGGCAAGA,0.126

row,Sequence,PBM E-score
1,ACGGTGCT,-0.19
2,CGACGCGA,-0.0839
3,GGCTCAGA,-0.117
4,GGCATCCC,-0.228
5,ACCGGATG,0.0332
6,AGGATGAT,0.105
7,CGGCGCGA,0.203
8,AGCCCACT,-0.0992
9,ACCCGATA,-0.0464
10,CATCCAGA,-0.167
11,CCACACAA,-0.125
12,CGTGGTGA,-0.0563
13,ACTAGCAA,-0.00235
14,GTCGTAGA,0.0902
15,AGCCCCCT,-0.391
16,CTTGTAGC,0.0447
17,ACGCGGAC,-0.0578
18,GCTGGTAC,0.029
19,CCACGCCA,-0.0373
20,AGCTCCTA,-0.182
21,CTATGCGC,0.06
22,AGTAAGCA,0.241
23,CAACCTTC,-0.0566
24,GCTTTTCC,-0.0546
25,TCTCGCAA,-0.0928

row,Sequence,PBM E-score
1,GAGCATCA,-0.0201
2,GAGGGCTA,-0.142
3,TCTGATCA,0.182
4,AAAGTACA,-0.00569
5,GAGTGTTA,0.0874
6,ACTTTGAT,-0.0191
7,AAAAATAG,0.0801
8,AATGGTAC,0.0403
9,GGTGCTGA,-0.0741
10,AGCCGTCC,-0.0511
11,ACATCCAC,0.107
12,CCCTATCG,-0.124
13,ATTCCGAA,0.245
14,ATGGGAAC,-0.0325
15,CGTCCTTC,0.047
16,TCTAGCAA,-0.0137
17,AGAAAGGC,-0.131
18,CGTATAGA,0.0286
19,GCATCTAA,0.194
20,CACGGAAC,0.142
21,ACTTAGTC,-0.016
22,TATAGTGA,0.074
23,GTGTTAAC,0.168
24,TCGTAGCA,0.131
25,CGCCCACC,-0.0903

row,Sequence,PBM E-score
1,ACTTAAAT,-0.103
2,ACTGTAAG,0.167
3,AGCTTGTA,0.0676
4,ACTTAGAC,0.0693
5,GCCCTACA,0.00587
6,ATAAAGAT,0.0729
7,GGAGAGAC,-0.225
8,GGATGTCA,0.0717
9,CCGTGAGA,0.00771
10,CTCTGCTA,-0.242
11,ACGCAGTA,-0.155
12,ATCTTGCG,0.0982
13,CACGTTTC,-0.176
14,ATCACTGG,0.00347
15,ATGCTCAA,-0.0662
16,CAGTCGCG,-0.00755
17,GGACACAA,0.0879
18,CATCATAG,0.132
19,CCTACCAC,-0.288
20,ATAGCGGG,-0.222
21,GAAGGGCC,-0.0244
22,GTCCAATA,0.162
23,GAGACGCA,0.0404
24,CAGGTGTA,-0.135
25,GCGCGGAA,0.13

# Look-ups from the entries so far.
# Entry for CCGTGAGA under PBM E-score: 0.00771
# Entry for GGATGTCA under PBM E-score: 0.0717
# Entry for ATCACTGG under PBM E-score: 0.00347
# Entry for GCCCTACA under PBM E-score: 0.00587
# Entry for CATCATAG under PBM E-score: 0.132
# Entry for ACGCAGTA under PBM E-score: -0.155

# Remaining list, next part

row,Sequence,PBM E-score
1,GCTGCGTA,0.0998
2,CAGTGAAC,0.123
3,GATAAGAC,-0.00501
4,GTAACCAA,0.119
5,ACTTTCAA,0.108
6,GCCTGCGC,-0.0489
7,ACACCGGA,-0.144
8,GACGTAAA,0.0659
9,CATGCGGG,-0.115
10,AGGCGGGA,0.0276
11,CAAGCGTC,0.132
12,ATGGCTAC,-0.0325
13,GACTACTA,0.197
14,GAGACATC,-0.186
15,CTATAAGC,-0.0776
16,CAGGTACG,-0.269
17,CGCAATCA,0.0689
18,AAGAAAAT,0.167
19,CCATAGTC,-0.0534
20,ACAATGGT,-0.0362
21,GAATGGTC,-0.0781
22,AAGCGATT,0.187
23,CCCGTCCA,-0.164
24,AGACCTCG,0.0835
25,GATAAGTA,0.0851

row,Sequence,PBM E-score
1,AACCCCAA,0.113
2,ATTCCAGG,-0.0271
3,ACCTGTAC,-0.0708
4,GATCCGCA,-0.0378
5,CCCGCATC,-0.24
6,AGGCTGTC,-0.289
7,TACGGCAA,0.2
8,CCAGGGTC,-0.269
9,CGAACGAC,0.0659
10,CCTGACAA,-0.0066
11,CCATTCTA,-0.0256
12,AGTACCTG,-0.0799
13,CGAAAATC,0.259
14,TATCGTCA,0.0719
15,ACGCGGCT,-0.0787
16,AGCTACAT,-0.0024
17,ACTTCGTG,-0.141
18,CCACTCCA,-0.0933
19,CATTGCCA,-0.0605
20,CGAGATCA,0.0902
21,TCAAGCAA,-0.128
22,AGCCGACG,-0.0624
23,CTTCGGGA,-0.0798
24,CCGCGTGA,0.156
25,CCATGGCG,0.187

row,Sequence,PBM E-score
1,CCGATTGA,0.144
2,AACGTGAT,0.00627
3,AAATTTTA,0.234
4,GCGCCACA,0.0679
5,AGACGCCC,-0.118
6,CCAAAATC,0.169
7,CCTATCCC,0.0551
8,AATTACAG,0.161
9,ATGTGCCA,0.0507
10,ATCCTGAG,0.13
11,CCACTGGA,0.00141
12,CTTAAAGC,0.0884
13,GCGTTAAA,-0.0607
14,AAACCAAT,0.134
15,GGAAACCC,0.0386
16,GCCTTTCC,-0.18
17,GCATATCA,0.278
18,AGCAGTAT,0.1
19,AACGTATT,0.0985
20,GGGGAGAC,-0.357
21,CAGCTAAA,-0.121
22,CAACATGA,0.144
23,CACAGTGC,0.0584
24,ATCCACTA,0.127
25,CTCCCGAA,-0.14

row,Sequence,PBM E-score
1,CTTCACGC,0.26
2,CCTTTCCG,-0.00857
3,AACTCAGA,0.0846
4,AAAATGCA,-0.13
5,ATCCCAGC,-0.127
6,CTTACCTC,-0.0709
7,ACGCTGCG,-0.0632
8,CGAAAAAA,0.178
9,AGCCACTC,-0.137
10,GGCATAGA,-0.0491
11,GATGTTAC,0.0872
12,AAGTAGTC,0.0212
13,CAAGGCCG,0.0901
14,CGCTGCAG,-0.0252
15,TCAGAGGA,-0.0809
16,AAGTGGCT,-0.0711
17,CGTCCCTC,-0.0857
18,CCGTTTCC,-0.029
19,CATGTTCG,-0.00821
20,GGGATGGA,-0.0694
21,TAACGTGA,-0.147
22,CCGAAAGC,-0.218
23,GCAGACTA,-0.03
24,CGAAGCAA,0.0503
25,ACCCAGTC,-0.139

row,Sequence,PBM E-score
1,CCTCAACA,0.0958
2,CGCTCAAG,-0.15
3,TCCCAACA,-0.0655
4,AGTCCTAT,0.0597
5,CACACTGC,-0.0205
6,CAGTTCCA,0.134
7,AAAATCAC,0.132
8,CCCGCGAG,0.011
9,CGAACCAA,0.0391
10,AAAGTTCG,0.066
11,GGACTTAA,-0.0564
12,ATTTGCTA,0.186
13,AAAATTTT,0.234
14,AACCGTAG,-0.177
15,GTAGAAAC,-0.154
16,AAGGTGAA,-0.00719
17,AGTCAAGA,0.121
18,CAAGCCCG,-0.153
19,ACTTATAA,0.279

# Given as tab-separated lines: part of the list above
row	Sequence	PBM E-score
13	AAAATTTT	0.234
14	AACCGTAG	-0.177
